Measurements reported in PubChem BioAssay AID720505 (Drosophila RNAi Screening Center, 2013).
The deposit covers about 20,000 reagents; shown is an unselected part of those that have a named target and a result. Of all reagents, about 2,100 (10%) are marked active. 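Raw plate signals without normalisation; calls rest on control-based scores that were not deposited; replicate 2 separates called from uncalled poorly.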 A plus sign joins genes that one reagent is predicted to hit. Not stated in the record: the amount of reagent, the time to read-out.

Test: 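Fly regulators or components of the CRAC channel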 (primary screen)
System: Drosophila S2R+ cells
Reagents: long dsRNA against Drosophila genes
Treatment: thapsigargin (2 µM) in calcium-free buffer to empty internal stores, then 2 mM calcium added back
Read-out: 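Stores emptied by 2 µM thapsigargin without calcium, then 2 mM calcium re-added; fluo-4 fluorescence followed by FLIPR in 384-well plates, per-well averaged endpoint, raw; two screen passes, some wells retested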
Scale: calcium signal and retest calcium signal: higher = more calcium entry after store depletion
Call rule: 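Knock-downs counted as hits when calcium entry dropped relative to STIM1 positive and Rho1 negative controls present on each plate; roughly 1500 genes called, with reductions of differing size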
Meaning of the calls: active = called as lowering calcium entry; inactive = not called

| gene knocked down | dsRNA | calcium signal, replicate 1 | calcium signal, replicate 2 | retest calcium signal, replicate 1 | retest calcium signal, replicate 2 | call |
| --- | --- | --- | --- | --- | --- | --- |
| CG14411 (GeneID 32408) | DRSC19597 | 91.7 | 96.2 | – | – | inactive |
| CG1636 (GeneID 31766) | DRSC18111 | 159 | 87.6 | 91.1 | 77.1 | inactive |
| Dci (GeneID 38100) | DRSC08360 | 119 | 122 | – | – | inactive |
| CG14074 (GeneID 40051) | DRSC10079 | 122 | 148 | – | – | inactive |
| CG4119 (GeneID 31481) | DRSC17741 | 107 | 125 | – | – | inactive |
| ND-SGDH (GeneID 46260) | DRSC11102 | 37.9 | 81.9 | – | – | active |
| CG17249 (GeneID 38201) | DRSC08517 | 127 | 145 | – | – | inactive |
| aph-1 (GeneID 33467) | DRSC00547 | 113 | 167 | – | – | inactive |
| z (GeneID 31230) | DRSC18855 | 135 | 155 | – | – | inactive |
| z (GeneID 31230) | DRSC23134 | 126 | 193 | – | – | inactive |
| CG14613 (GeneID 33133) | DRSC20625 | 166 | 112 | – | – | inactive |
| Cpsf160 (GeneID 44250) | DRSC05968 | 153 | 145 | – | – | inactive |
| CG14961 (GeneID 38414) | DRSC08420 | 71.7 | 112 | – | – | inactive |
| CG5339 (GeneID 37794) | DRSC04496 | 96.7 | 96.3 | – | – | inactive |
| CG6553 (GeneID 36537) | DRSC07002 | 114 | 178 | – | – | inactive |
| CG11438 (GeneID 40469) | DRSC11660 | 93.7 | 130 | – | – | inactive |
| RpL31 (GeneID 35988) | DRSC06716 | 105 | 124 | – | – | inactive |
| Pink1 (GeneID 31607) | DRSC18361 | 183 | 143 | – | – | inactive |
| CG43191 (GeneID 12798408) | DRSC05326 | 73.8 | 147 | – | – | inactive |
| inc (GeneID 31110) | DRSC17954 | 109 | 113 | – | – | inactive |
| inc (GeneID 31110) | DRSC18512 | 99.4 | 90.3 | 103 | 95.3 | inactive |
| rols (GeneID 39368) | DRSC09873 | 67.8 | 101 | – | – | active |
| rols (GeneID 39368) | DRSC10254 | 94.9 | 96.2 | – | – | inactive |
| rols (GeneID 39368) | DRSC10536 | 104 | 85.7 | – | – | inactive |
| atk (GeneID 40266) | DRSC11418 | 6114 | 115 | – | – | inactive |
| atk (GeneID 40266) | DRSC11769 | 136 | 165 | – | – | inactive |
| CG14423 (GeneID 31287) | DRSC17920 | 105 | 138 | – | – | inactive |
| CG9444 (GeneID 41175) | DRSC16493 | 159 | 105 | – | – | inactive |
| CG14795 (GeneID 31109) | DRSC18513 | 92.5 | 129 | – | – | inactive |
| CG5835 (GeneID 42296) | DRSC15886 | 189 | 123 | – | – | inactive |
| Rep (GeneID 37246) | DRSC07526 | 154 | 99.9 | – | – | inactive |
| Ptp61F (GeneID 38160) | DRSC08683 | 98 | 145 | – | – | inactive |
| CG5039 (GeneID 43100) | DRSC15703 | 150 | 104 | – | – | inactive |
| beta-Man (GeneID 40524) | DRSC12208 | 115 | 96.3 | – | – | inactive |
| beta-Man (GeneID 40524) | DRSC12209 | 121 | 129 | – | – | inactive |
| Ir47a (GeneID 36095) | DRSC06215 | 140 | 166 | – | – | inactive |
| Ir48b (GeneID 36254) | DRSC06320 | 77.8 | 157 | – | – | inactive |
| Tsen34 + Trl | DRSC10014 | 114 | 152 | – | – | inactive |
| RpL5 (GeneID 3355124) | DRSC03801 | 144 | 98.3 | – | – | inactive |
| CG13578 (GeneID 37891) | DRSC04214 | 103 | 200 | – | – | inactive |
| Fpgs2 (GeneID 326159) | DRSC00600 | 147 | 75 | – | – | inactive |
| par-1 (GeneID 2768852) | DRSC05792 | 59.4 | 111 | – | – | active |
| par-1 (GeneID 2768852) | DRSC06098 | 183 | 215 | – | – | inactive |
| par-1 (GeneID 2768852) | DRSC06616 | 138 | 97.1 | – | – | inactive |
| par-1 (GeneID 2768852) | DRSC07660 | 177 | 117 | – | – | inactive |
| par-1 (GeneID 2768852) | DRSC07661 | 174 | 150 | – | – | inactive |
| Spt7 (GeneID 32766) | DRSC19997 | 147 | 102 | – | – | inactive |
| CG2772 (GeneID 33559) | DRSC00530 | 189 | 90.4 | – | – | inactive |
| CG10337 (GeneID 35247) | DRSC02038 | 56 | 145 | – | – | inactive |
| Nnf1b (GeneID 318874) | DRSC22080 | 124 | 229 | – | – | inactive |
| CG13991 (GeneID 33868) | DRSC02323 | 159 | 80.9 | – | – | inactive |
| ACXA (GeneID 53432) | DRSC00844 | 106 | 103 | – | – | inactive |
| CG7953 (GeneID 34801) | DRSC01902 | 82.7 | 153 | – | – | inactive |
| Cnb (GeneID 38258) | DRSC08569 | 138 | 96 | – | – | inactive |
| eg (GeneID 40428) | DRSC11885 | 122 | 171 | – | – | inactive |
| Cpr49Af (GeneID 36352) | DRSC07202 | 137 | 162 | – | – | inactive |

Part of the list above in another layout:
gene knocked down,dsRNA,"calcium signal, replicate 1","calcium signal, replicate 2","retest calcium signal, replicate 1","retest calcium signal, replicate 2",call
beta-Man (GeneID 40524),DRSC12208,115,96.3,,,inactive
beta-Man (GeneID 40524),DRSC12209,121,129,,,inactive
Ir47a (GeneID 36095),DRSC06215,140,166,,,inactive
Ir48b (GeneID 36254),DRSC06320,77.8,157,,,inactive
Tsen34 + Trl,DRSC10014,114,152,,,inactive
RpL5 (GeneID 3355124),DRSC03801,144,98.3,,,inactive
CG13578 (GeneID 37891),DRSC04214,103,200,,,inactive
